Source: paper PMC7587437
Results are given in words; binding and its absence hold for the method and conditions named. In cells and extracts the contact can be indirect. Some entries that bind do so weakly or less than the wild type. For part of these data: Sequences can lack the tags named with a protein.

Protein sequences, listed by entry. Tags and fused reporters are not part of them.
UniProt P0A6X3: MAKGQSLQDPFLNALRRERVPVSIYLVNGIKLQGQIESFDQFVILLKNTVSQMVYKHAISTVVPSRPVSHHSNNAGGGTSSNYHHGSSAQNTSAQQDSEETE

T1: native RNase R (Escherichia coli (endogenous in E. coli K-12 MG1693)) (UniProt P21499)
T1 sequence: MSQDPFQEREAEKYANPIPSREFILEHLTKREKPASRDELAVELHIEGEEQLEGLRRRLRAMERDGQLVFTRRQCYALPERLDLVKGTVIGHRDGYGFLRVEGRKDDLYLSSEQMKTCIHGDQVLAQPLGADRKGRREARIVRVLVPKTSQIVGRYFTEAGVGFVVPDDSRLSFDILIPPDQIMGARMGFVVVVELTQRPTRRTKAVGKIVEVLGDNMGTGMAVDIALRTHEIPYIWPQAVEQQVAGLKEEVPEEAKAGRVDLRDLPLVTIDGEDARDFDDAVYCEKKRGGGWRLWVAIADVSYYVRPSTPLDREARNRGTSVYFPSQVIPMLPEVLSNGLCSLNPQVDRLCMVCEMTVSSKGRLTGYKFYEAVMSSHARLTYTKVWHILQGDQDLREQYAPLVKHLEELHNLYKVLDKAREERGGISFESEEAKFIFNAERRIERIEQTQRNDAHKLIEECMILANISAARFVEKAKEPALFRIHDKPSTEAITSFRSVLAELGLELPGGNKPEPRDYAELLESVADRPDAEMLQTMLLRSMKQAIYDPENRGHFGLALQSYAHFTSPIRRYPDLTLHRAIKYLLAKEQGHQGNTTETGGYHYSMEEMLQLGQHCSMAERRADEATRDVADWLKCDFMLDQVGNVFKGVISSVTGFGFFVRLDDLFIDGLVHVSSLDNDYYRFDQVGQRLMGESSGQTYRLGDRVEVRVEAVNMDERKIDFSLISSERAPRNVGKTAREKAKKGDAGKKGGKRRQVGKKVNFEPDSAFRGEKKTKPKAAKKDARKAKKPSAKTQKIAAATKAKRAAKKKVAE

T2: His6-RNase R (Escherichia coli) (UniProt P21499)
T2 sequence: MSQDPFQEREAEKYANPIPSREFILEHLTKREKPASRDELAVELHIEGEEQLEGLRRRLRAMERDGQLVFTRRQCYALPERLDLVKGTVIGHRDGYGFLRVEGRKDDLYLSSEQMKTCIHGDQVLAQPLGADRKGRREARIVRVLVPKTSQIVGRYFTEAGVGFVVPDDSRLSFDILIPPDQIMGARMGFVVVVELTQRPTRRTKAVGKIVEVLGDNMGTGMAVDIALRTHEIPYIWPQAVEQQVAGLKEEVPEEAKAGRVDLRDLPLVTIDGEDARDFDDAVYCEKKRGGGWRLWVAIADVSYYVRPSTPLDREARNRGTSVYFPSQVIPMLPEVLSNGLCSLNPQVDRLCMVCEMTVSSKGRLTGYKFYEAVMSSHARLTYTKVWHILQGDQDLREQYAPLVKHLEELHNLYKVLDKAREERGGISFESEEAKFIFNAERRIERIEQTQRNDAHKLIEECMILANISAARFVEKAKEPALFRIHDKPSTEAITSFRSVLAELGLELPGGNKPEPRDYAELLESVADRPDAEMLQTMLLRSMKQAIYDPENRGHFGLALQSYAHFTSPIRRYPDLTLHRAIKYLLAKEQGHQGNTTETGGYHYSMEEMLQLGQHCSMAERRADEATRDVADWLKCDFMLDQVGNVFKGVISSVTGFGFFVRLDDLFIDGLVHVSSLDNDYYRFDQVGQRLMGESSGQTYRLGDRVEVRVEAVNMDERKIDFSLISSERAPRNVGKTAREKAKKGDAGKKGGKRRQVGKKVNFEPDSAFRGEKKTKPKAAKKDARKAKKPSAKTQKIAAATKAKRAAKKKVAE

B1: native RNase R (enzyme, UniProt P21499 1-813)
chain: MSQDPFQEREAEKYANPIPSREFILEHLTKREKPASRDELAVELHIEGEEQLEGLRRRLRAMERDGQLVFTRRQCYALPERLDLVKGTVIGHRDGYGFLRVEGRKDDLYLSSEQMKTCIHGDQVLAQPLGADRKGRREARIVRVLVPKTSQIVGRYFTEAGVGFVVPDDSRLSFDILIPPDQIMGARMGFVVVVELTQRPTRRTKAVGKIVEVLGDNMGTGMAVDIALRTHEIPYIWPQAVEQQVAGLKEEVPEEAKAGRVDLRDLPLVTIDGEDARDFDDAVYCEKKRGGGWRLWVAIADVSYYVRPSTPLDREARNRGTSVYFPSQVIPMLPEVLSNGLCSLNPQVDRLCMVCEMTVSSKGRLTGYKFYEAVMSSHARLTYTKVWHILQGDQDLREQYAPLVKHLEELHNLYKVLDKAREERGGISFESEEAKFIFNAERRIERIEQTQRNDAHKLIEECMILANISAARFVEKAKEPALFRIHDKPSTEAITSFRSVLAELGLELPGGNKPEPRDYAELLESVADRPDAEMLQTMLLRSMKQAIYDPENRGHFGLALQSYAHFTSPIRRYPDLTLHRAIKYLLAKEQGHQGNTTETGGYHYSMEEMLQLGQHCSMAERRADEATRDVADWLKCDFMLDQVGNVFKGVISSVTGFGFFVRLDDLFIDGLVHVSSLDNDYYRFDQVGQRLMGESSGQTYRLGDRVEVRVEAVNMDERKIDFSLISSERAPRNVGKTAREKAKKGDAGKKGGKRRQVGKKVNFEPDSAFRGEKKTKPKAAKKDARKAKKPSAKTQKIAAATKAKRAAKKKVAE

Tests used:
[1] = target: T1, native RNase R (Escherichia coli (endogenous in E. coli K-12 MG1693)); test: co-IP; polyclonal anti-RNase R antibody on protein A/G agarose beads (Pierce Crosslink IP kit), E. coli cell lysates (wild type, Δhfq, Δrnr); Hfq detected by Western blot
[2] = target: T2, His6-RNase R (Escherichia coli); test: pull-down; purified His6-RNase R immobilised on Ni-NTA beads, incubated with wild-type cell lysate overnight at 4°C; Western blot with anti-Hfq antibody; only the target purified
[3] = target: His6-Hfq (Escherichia coli) (UniProt P0A6X3); test: pull-down; purified His6-Hfq immobilised on Ni-NTA beads, incubated with wild-type cell lysate overnight at 4°C; eluted with imidazole; Western blot with anti-RNase R antibody; only the target purified

binding [1]	binding [2]	binding [3]	Molecule
binds	binds		native Hfq (from UniProt P0A6X3 1-102)
		binds	B1
